# From paper PMC10465357
# No constants are given. Whether binding was seen depends on the method and setting. Binding seen in cells or lysates may run through a third protein. Binding can be weak; no strength is given.
# B1: 14-3-3 protein YWHAH (protein, UniProt Q04917 1-246)
# chain: MGDREQLLQRARLAEQAERYDDMASAMKAVTELNEPLSNEDRNLLSVAYKNVVGARRSSWRVISSIEQKTMADGNEKKLEKVKAYREKIEKELETVCNDVLSLLDKFLIKNCNDFQYESKVFYLKMKGDYYRYLAEVASGEKKNSVVEASEAAYKEAFEISKEQMQPTHPIRLGLALNFSVFYYEIQNAPEQACLLAKQAFDDAIAELDTLNEDSYKDSTLIMQLLRDNLTLWTSDQQDEEAGEGN
# B2: 14-3-3 protein gamma (YWHAG) (protein, UniProt P61981 1-247)
# chain: MVDREQLVQKARLAEQAERYDDMAAAMKNVTELNEPLSNEERNLLSVAYKNVVGARRSSWRVISSIEQKTSADGNEKKIEMVRAYREKIEKELEAVCQDVLSLLDNYLIKNCSETQYESKVFYLKMKGDYYRYLAEVATGEKRATVVESSEKAYSEAHEISKEHMQPTHPIRLGLALNYSVFYYEIQNAPEQACHLAKTAFDDAIAELDTLNEDSYKDSTLIMQLLRDNLTLWTSDQQDDDGGEGNN
# B3: 14-3-3 protein YWHAQ (protein, UniProt P27348 1-245)
# chain: MEKTELIQKAKLAEQAERYDDMATCMKAVTEQGAELSNEERNLLSVAYKNVVGGRRSAWRVISSIEQKTDTSDKKLQLIKDYREKVESELRSICTTVLELLDKYLIANATNPESKVFYLKMKGDYFRYLAEVACGDDRKQTIDNSQGAYQEAFDISKKEMQPTHPIRLGLALNFSVFYYEILNNPELACTLAKTAFDEAIAELDTLNEDSYKDSTLIMQLLRDNLTLWTSDSAGEECDAAEGAEN
# Target: UL32 (also known as pp150) (human cytomegalovirus (HCMV), strain TB40-BAC4)
# Assay: cross-linking; XL-MS: intact extracellular HCMV TB40-BAC4 particles in PBS crosslinked with DSSO (2.5 mM twice, 30 min, 25 °C), quenched, virions purified on glycerol-tartrate gradients, LC-MS of crosslinked peptides, 1% FDR, n = 2 biological replicates
row,Binder,binding
1,B1,binds
2,B2,binds
3,B3,binds

# Target: UL99 (also known as pp28) (human cytomegalovirus (HCMV), strain TB40-BAC4)
# Assay: as above
row,Binder,binding
1,B1,binds
2,B2,binds
3,B3,binds
